PubChem BioAssay AID1259405 | NCATS – 2018
This is an unselected part of about 50,000 deposited reagents. About 4,000 of them (8%) were called active. 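Mouse siRNA library applied to hamster cells; one well for each siRNA.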 Unmarked entries are inactive.

Screen: 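Knock-downs that lift recombinant protein yield in hamster ovary cells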 (primary screen)
System: Chinese hamster CHO-K1 ovary cells with stable secreted eGFP expression
Reagents: single siRNA against mouse genes, 0.8 pmol siRNA per well (2 µl of 400 nM stock)
Timing: 3 days
Read-out: 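Percent of the per-plate non-targeting control median for intracellular GFP per well by laser scanning cytometry and for cell viability by ATP luminescence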
Reading the numbers: GFP, % of control: higher = more GFP per well, higher productivity; viability (ATP), % of control: higher = more viable cells (more ATP)
Call rule: 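Called active when intracellular GFP, relative to negative control, is at or above 120%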

gene symbol,PubChem SID,"GFP, % of control","viability (ATP), % of control"
Krtap4-16 (keratin associated protein 4-16),SID363541228,73.8,61
Krtap4-16 (keratin associated protein 4-16),SID363555855,45.7,55.6
Krtap4-16 (keratin associated protein 4-16),SID363566144,103,73.7
Nmbr (neuromedin B receptor),SID363571159,73.3,56.6
Nmbr (neuromedin B receptor),SID363571511,113,79.4
Nmbr (neuromedin B receptor),SID363571863,66.2,83.5
Ecm2,SID363553542,75.3,56.3
Ecm2,SID363561499,81.4,79.9
Ecm2,SID363565237,86.2,66.8
"Farsb (phenylalanyl-tRNA synthetase, beta subunit)",SID363569360,84.3,89.3
"Farsb (phenylalanyl-tRNA synthetase, beta subunit)",SID363577104,170 (active),136
"Farsb (phenylalanyl-tRNA synthetase, beta subunit)",SID363578512,83.4,77.7
"Sgce (sarcoglycan, epsilon)",SID363554931,107,62.7
"Sgce (sarcoglycan, epsilon)",SID363568378,69.9,79.4
"Sgce (sarcoglycan, epsilon)",SID363586437,91.3,93.2
"Gmfg (glia maturation factor, gamma)",SID363541387,106,69
"Gmfg (glia maturation factor, gamma)",SID363556014,88,81.2
"Gmfg (glia maturation factor, gamma)",SID363566303,61.9,50.1
Ntsr1 (neurotensin receptor 1),SID363571212,91.9,71.6
Ntsr1 (neurotensin receptor 1),SID363571564,86.3,70.2
Ntsr1 (neurotensin receptor 1),SID363571916,126 (active),89.1
Arhgap8 (Rho GTPase activating protein 8),SID363542276,60.8,82.7
Arhgap8 (Rho GTPase activating protein 8),SID363551767,141 (active),89.4
Arhgap8 (Rho GTPase activating protein 8),SID363559372,91.2,46.9
"Psmd9 (proteasome (prosome, macropain) 26S subunit, non-ATPase, 9)",SID363584444,91.8,78.7
"Psmd9 (proteasome (prosome, macropain) 26S subunit, non-ATPase, 9)",SID363589474,143 (active),94.9
Slfn4 (schlafen 4),SID363555088,64.3,63.2
Slfn4 (schlafen 4),SID363568535,85.1,70.1
Slfn4 (schlafen 4),SID363586594,50.9,60.7
Fxyd6 (FXYD domain-containing ion transport regulator 6),SID363574253,117,107
Fxyd6 (FXYD domain-containing ion transport regulator 6),SID363575309,59.9,66.6
Fxyd6 (FXYD domain-containing ion transport regulator 6),SID363579885,42.2,64.3
Pkd1l2 (polycystic kidney disease 1 like 2),SID363570236,111,85
Pkd1l2 (polycystic kidney disease 1 like 2),SID363576572,76.9,78.6
Pkd1l2 (polycystic kidney disease 1 like 2),SID363579740,31.4,53.7
Sema6d,SID363541600,93.5,98
Sema6d,SID363553192,44.1,37.7
Sema6d,SID363566516,61.4,51.1
Or8d4 (olfactory receptor family 8 subfamily D member 4),SID363554498,35.3,29.5
Or8d4 (olfactory receptor family 8 subfamily D member 4),SID363567945,78.9,59.7
Or8d4 (olfactory receptor family 8 subfamily D member 4),SID363586004,71.1,84
Caly (calcyon neuron-specific vesicular protein),SID363581670,78.3,59
Caly (calcyon neuron-specific vesicular protein),SID363589164,96.3,95.6
Foxs1 (forkhead box S1),SID363573441,79.2,90.7
Foxs1 (forkhead box S1),SID363588680,115,84.8
Runx1t1 (RUNX1 translocation partner 1),SID363547415,92.3,144
Runx1t1 (RUNX1 translocation partner 1),SID363558184,101,106
Runx1t1 (RUNX1 translocation partner 1),SID363559942,70.7,68.2
Gfra2,SID363581894,71.2,107
Gfra2,SID363589388,120 (active),57.6
Crlf2 (cytokine receptor-like factor 2),SID363544857,80.5,31
Crlf2 (cytokine receptor-like factor 2),SID363551185,103,89.7
Crlf2 (cytokine receptor-like factor 2),SID363557734,90.5,83.7
"Ap1m2 (adaptor protein complex AP-1, mu 2 subunit)",SID363553846,67.2,74.4
"Ap1m2 (adaptor protein complex AP-1, mu 2 subunit)",SID363561803,97.9,69
"Ap1m2 (adaptor protein complex AP-1, mu 2 subunit)",SID363565541,86.2,48.5

Called active, of those listed so far:
gene symbol,PubChem SID,"GFP, % of control","viability (ATP), % of control"
"Farsb (phenylalanyl-tRNA synthetase, beta subunit)",SID363577104,170 (active),136
Ntsr1 (neurotensin receptor 1),SID363571916,126 (active),89.1
Arhgap8 (Rho GTPase activating protein 8),SID363551767,141 (active),89.4
"Psmd9 (proteasome (prosome, macropain) 26S subunit, non-ATPase, 9)",SID363589474,143 (active),94.9
Gfra2,SID363589388,120 (active),57.6

The results go on.
gene symbol,PubChem SID,"GFP, % of control","viability (ATP), % of control"
Ift52 (intraflagellar transport 52),SID363546902,56.8,56.6
Ift52 (intraflagellar transport 52),SID363549714,50.3,51.4
Ift52 (intraflagellar transport 52),SID363587768,76.6,62.8
Rcc2 (regulator of chromosome condensation 2),SID363543825,125 (active),98.6
Rcc2 (regulator of chromosome condensation 2),SID363551561,72.4,61.4
Rcc2 (regulator of chromosome condensation 2),SID363559166,96.7,54.4
5330438I03Rik (RIKEN cDNA 5330438I03 gene),SID363552315,71.5,59.8
5330438I03Rik (RIKEN cDNA 5330438I03 gene),SID363585451,95.4,86.6
5330438I03Rik (RIKEN cDNA 5330438I03 gene),SID363585802,115,107
"Topors (topoisomerase I binding, arginine/serine-rich)",SID363573024,68.5,54.6
"Topors (topoisomerase I binding, arginine/serine-rich)",SID363577600,68.6,61.8
"Topors (topoisomerase I binding, arginine/serine-rich)",SID363581120,73.2,72
Pds5b (PDS5 cohesin associated factor B),SID363546781,62.6,54.1
Pds5b (PDS5 cohesin associated factor B),SID363548537,65.7,75.9
Pds5b (PDS5 cohesin associated factor B),SID363560715,23.6,13.9
Bloc1s4,SID363550234,69.7,101
Bloc1s4,SID363564743,71.2,97.2
Bloc1s4,SID363588288,74.9,116
Fkbp8 (FK506 binding protein 8),SID363568871,143 (active),103
Fkbp8 (FK506 binding protein 8),SID363576263,49.5,51.4
Fkbp8 (FK506 binding protein 8),SID363579079,73.8,64.5
Acot9 (acyl-CoA thioesterase 9),SID363545768,24,43.3
Acot9 (acyl-CoA thioesterase 9),SID363549281,69.5,81.1
Acot9 (acyl-CoA thioesterase 9),SID363563087,64.4,72.5
Or6c219 (olfactory receptor family 6 subfamily C member 219),SID363554492,110,83.6
Or6c219 (olfactory receptor family 6 subfamily C member 219),SID363567939,139 (active),58
Or6c219 (olfactory receptor family 6 subfamily C member 219),SID363585998,87.3,90.1
S100a8 (S100 calcium binding protein A8 (calgranulin A)),SID363582428,71.1,84.4
S100a8 (S100 calcium binding protein A8 (calgranulin A)),SID363584188,63,75.4
